The results in this text go back to publication PMC6376064.

The chains behind the UniProt entries cited, without tags or fusion partners.
UniProt Q13043: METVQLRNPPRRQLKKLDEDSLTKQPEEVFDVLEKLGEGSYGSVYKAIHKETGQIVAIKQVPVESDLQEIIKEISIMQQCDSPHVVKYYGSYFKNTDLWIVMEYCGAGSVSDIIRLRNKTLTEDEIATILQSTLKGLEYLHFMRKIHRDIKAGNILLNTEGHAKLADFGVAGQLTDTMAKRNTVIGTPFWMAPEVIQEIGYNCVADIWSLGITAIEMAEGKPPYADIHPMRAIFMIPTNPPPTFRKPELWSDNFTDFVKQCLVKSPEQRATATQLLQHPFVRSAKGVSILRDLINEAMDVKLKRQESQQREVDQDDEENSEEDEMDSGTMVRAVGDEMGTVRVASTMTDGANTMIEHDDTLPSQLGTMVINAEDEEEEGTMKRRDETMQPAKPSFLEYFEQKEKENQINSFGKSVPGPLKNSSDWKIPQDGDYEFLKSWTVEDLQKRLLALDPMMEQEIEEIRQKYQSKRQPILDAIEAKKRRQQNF

Results are given in words; binding and its absence hold for the method and conditions named. In cells and extracts the contact can be indirect. These calls come from enrichment with a bait or labelling near it, and not all partners need be listed. For some assays here: Sequences can lack the tags named with a protein.

The target in one test is Flag-tagged Mst1 (UniProt Q13043). The test can be described thus: affinity purification with mass spectrometry; Flag-tagged Mst1 or Mst2 immunoprecipitated from lysates of THP1 macrophages; gel segments digested with trypsin, mass spectrometry.
Test [1] addresses T1, Flag-tagged Mst2 (in THP1 macrophages) (UniProt Q13188).
T1 sequence: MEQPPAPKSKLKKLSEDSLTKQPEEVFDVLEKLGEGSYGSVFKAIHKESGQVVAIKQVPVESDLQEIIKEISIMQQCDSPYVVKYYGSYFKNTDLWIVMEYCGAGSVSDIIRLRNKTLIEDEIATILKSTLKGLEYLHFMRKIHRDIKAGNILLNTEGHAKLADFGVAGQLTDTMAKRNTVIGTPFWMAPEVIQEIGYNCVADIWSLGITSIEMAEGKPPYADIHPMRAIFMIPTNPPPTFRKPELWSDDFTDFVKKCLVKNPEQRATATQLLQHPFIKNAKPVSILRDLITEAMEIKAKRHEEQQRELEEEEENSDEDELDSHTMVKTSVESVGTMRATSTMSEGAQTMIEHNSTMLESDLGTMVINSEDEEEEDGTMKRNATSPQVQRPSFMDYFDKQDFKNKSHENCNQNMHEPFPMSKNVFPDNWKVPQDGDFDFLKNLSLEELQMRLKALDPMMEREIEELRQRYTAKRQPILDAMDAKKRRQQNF
The test is described as above.

Turning to “Keap1 (kelch like ECH associated protein 1), endogenous in THP1 macrophages (from UniProt Q14145 1-624)”, the binding entry (with Flag-tagged Mst1; in test [1]) was “binds” each time.
